At least one read-out could not be matched to a standard name with certainty.
Tested on: MDA-MB-468 cells
Experiment: Fluorescence microscopy, cellular distribution and intracellular degradation
Format: cell-based, human
Details: 6 h pre-incubation, imaged up to 24 hours

Substance: mPEG2000 KLDLKLDLKLDLK-Cy5.5 (mPEG2000, Cy5.5) [Cy5.5-NFP2, optically quenched nanofiber prepared using Cy5.5-conjugated peptide constructs only]
- intracellular degradation of quenched nanofibers (fluorescence recovery): no degradation was observed

Substance: mPEG2000-KKKKKKKLDLKLDLKLDLK-Cy5.5 (mPEG2000, Cy5.5) [Cy5.5-NFP1, optically quenched nanofiber prepared using Cy5.5-conjugated peptide constructs only]
- intracellular degradation of quenched nanofibers (fluorescence recovery): increase in fluorescence over time

Source: patent US10449259B2, “Enzyme-responsive peptide nanofiber compositions and uses thereof” (Cornell University, priority 2015, dated 2019)
